Reference: PubChem BioAssay (NCATS)
“And” between values parts separate entries of the source, which are not always exact repeats. Equal entries are not always repeated. The inconclusive results got no clear call from the source; some entries with a clear call stand among them for comparison. For some of these results: Potencies of inconclusive entries are doubtful fits and often do not repeat. For some of these results: A note “side channel” means that the fit belongs to a control or component signal, not to the main read-out. The source made the active and inactive calls. Unless noted, the call rests on the fitted dose curve; in most records, active means well fitted curve in the direction sought with a large enough effect; inconclusive means small, poorly fitted or top-dose-only effect, or another doubt; inactive means no such curve, though single readings can be large; an effect the other way counts as inactive or inconclusive.

Amino acid sequences for entries named in this document (tags omitted). A change or cut given only in a name is not applied to a line headed by its entry.
UniProt P03372, whole entry, looked up: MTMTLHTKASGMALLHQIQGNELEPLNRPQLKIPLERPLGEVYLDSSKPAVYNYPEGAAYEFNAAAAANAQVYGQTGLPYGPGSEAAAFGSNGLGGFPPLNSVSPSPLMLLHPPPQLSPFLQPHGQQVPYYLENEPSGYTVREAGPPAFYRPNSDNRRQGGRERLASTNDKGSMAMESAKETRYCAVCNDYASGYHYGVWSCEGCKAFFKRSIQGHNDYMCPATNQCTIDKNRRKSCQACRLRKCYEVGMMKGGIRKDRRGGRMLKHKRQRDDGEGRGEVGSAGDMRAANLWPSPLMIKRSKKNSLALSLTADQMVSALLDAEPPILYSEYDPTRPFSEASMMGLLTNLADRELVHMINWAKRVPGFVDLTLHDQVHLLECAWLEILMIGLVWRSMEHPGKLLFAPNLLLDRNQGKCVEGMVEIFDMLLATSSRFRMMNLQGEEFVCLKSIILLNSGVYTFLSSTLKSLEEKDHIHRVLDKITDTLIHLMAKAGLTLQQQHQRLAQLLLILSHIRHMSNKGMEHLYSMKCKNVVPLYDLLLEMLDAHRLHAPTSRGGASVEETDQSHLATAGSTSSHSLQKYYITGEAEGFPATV
UniProt Q03181: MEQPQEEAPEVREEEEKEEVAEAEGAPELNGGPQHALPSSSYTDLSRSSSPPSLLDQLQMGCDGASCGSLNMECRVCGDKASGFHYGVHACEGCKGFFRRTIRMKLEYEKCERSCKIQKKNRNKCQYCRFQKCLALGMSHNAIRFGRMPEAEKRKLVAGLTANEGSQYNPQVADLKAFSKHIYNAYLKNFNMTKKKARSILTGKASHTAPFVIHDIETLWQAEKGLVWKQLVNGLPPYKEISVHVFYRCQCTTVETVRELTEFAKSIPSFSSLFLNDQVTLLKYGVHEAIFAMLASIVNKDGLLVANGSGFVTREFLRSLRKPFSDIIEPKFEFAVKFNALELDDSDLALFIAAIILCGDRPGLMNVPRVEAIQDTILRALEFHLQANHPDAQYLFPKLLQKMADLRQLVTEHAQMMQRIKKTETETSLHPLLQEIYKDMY
UniProt P19793: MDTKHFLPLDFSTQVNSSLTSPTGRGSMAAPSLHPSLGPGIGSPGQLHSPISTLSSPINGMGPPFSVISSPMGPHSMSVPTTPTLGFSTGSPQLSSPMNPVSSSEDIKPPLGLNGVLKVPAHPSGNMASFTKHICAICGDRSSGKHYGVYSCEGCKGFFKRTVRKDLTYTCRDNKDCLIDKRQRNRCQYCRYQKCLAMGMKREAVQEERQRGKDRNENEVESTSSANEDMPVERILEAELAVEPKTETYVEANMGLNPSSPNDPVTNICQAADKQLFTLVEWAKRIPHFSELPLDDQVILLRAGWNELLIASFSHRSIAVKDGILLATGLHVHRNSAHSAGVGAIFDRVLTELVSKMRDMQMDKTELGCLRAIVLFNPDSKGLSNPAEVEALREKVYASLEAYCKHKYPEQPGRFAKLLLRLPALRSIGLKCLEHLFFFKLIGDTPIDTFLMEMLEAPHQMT
UniProt P10828: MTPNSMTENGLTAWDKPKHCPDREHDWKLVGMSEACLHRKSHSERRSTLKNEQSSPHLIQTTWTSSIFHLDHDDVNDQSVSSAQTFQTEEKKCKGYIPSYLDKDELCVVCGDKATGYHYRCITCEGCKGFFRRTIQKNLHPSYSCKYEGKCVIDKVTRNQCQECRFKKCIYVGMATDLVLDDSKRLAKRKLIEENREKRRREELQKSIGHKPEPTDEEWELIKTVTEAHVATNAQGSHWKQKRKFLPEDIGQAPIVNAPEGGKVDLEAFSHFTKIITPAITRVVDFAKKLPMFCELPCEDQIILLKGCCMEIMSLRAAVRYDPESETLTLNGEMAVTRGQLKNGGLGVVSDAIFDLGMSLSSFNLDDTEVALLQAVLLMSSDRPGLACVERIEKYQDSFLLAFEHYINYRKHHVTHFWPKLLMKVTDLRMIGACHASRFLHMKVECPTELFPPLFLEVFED
UniProt P51449: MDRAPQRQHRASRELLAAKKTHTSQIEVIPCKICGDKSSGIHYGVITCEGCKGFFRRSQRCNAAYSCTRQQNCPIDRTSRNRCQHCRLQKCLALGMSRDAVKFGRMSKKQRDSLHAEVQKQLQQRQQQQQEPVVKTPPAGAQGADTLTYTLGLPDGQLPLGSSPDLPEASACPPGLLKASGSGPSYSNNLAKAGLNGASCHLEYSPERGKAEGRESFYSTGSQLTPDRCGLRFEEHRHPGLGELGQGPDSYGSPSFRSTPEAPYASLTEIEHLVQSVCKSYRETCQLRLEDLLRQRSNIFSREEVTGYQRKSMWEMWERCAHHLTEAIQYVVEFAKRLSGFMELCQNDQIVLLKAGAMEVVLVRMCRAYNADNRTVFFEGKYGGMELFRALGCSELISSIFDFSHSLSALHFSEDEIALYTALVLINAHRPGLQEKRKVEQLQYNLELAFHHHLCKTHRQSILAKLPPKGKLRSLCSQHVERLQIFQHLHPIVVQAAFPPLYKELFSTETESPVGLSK
UniProt P10635, whole entry, looked up: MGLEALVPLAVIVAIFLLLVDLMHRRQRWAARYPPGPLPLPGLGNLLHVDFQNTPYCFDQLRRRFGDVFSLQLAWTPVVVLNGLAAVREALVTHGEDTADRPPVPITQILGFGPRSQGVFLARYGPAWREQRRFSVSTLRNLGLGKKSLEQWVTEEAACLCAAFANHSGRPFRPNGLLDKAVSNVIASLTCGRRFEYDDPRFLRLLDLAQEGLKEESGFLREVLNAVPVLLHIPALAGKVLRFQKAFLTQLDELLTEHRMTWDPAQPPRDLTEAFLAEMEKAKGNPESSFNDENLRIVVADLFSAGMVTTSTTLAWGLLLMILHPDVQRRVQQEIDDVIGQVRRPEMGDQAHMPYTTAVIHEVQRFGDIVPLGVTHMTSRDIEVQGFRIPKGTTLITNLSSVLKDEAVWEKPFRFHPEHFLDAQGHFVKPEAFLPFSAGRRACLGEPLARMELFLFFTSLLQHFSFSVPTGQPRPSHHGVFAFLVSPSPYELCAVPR
UniProt P07203, whole entry, looked up: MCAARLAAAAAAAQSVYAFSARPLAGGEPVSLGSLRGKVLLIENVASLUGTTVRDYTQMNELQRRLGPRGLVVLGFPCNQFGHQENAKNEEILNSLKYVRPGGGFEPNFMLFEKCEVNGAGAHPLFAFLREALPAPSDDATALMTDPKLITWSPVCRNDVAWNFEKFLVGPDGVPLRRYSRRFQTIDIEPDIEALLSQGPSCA

Legend:
[1] = Cellular Toxicity (caspase-3) SK-N-SH (AID 661); settings: SK-N-SH caspase-3 activation, qHTS; caspase-3 activation: at 91.7 µM (top of the series), DMSO as zero, staurosporine as full;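 further: cells exposed to compound for 16 hours; 0% = DMSO basal and 100% = 10 µM staurosporine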
Outline: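 Cells were seeded and incubated 5 hr at 37 °C, dosed with compound over a concentration range for 16 hr, then given Caspase-Glo 3/7 reagent for 1 hr at room temperature before luminescence reading.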

[2] = Cell Viability - LYMP2-012 (AID 982);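 further: cellular ATP by luciferase luminescence where a drop means cytotoxicity; cells exposed to compound for one day before reading; 0% = DMSO only and full loss = 92 µM tetraoctylammonium bromide; nearly all actives have a fitted effect of over 55% in size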
[3] = qHTS Assay for Lipid Storage Modulators (AID 1519; calls by dose curve; further: on the % scale 0 is the no-effect control and ±100 the full control effect); settings: Drosophila S3 cells, BODIPY lipid droplet/cell ratio, laser cytometry, cells loaded with oleic acid; activity change, negative = inhibition: at 57.5 µM (top of the series) unless noted
Outline: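 Cells seeded at 5,000 per well were treated with compounds over a concentration series and loaded with oleic acid (400 uM, as added). Lipid droplet fluorescence (488 nm excitation, 500-530 nm channel) was read by laser-scanning cytometry and normalized to 20 uM Triacsin C.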

[4] = molecular target: Estrogen receptor (Homo sapiens) (UniProt P03372); experiment: qHTS assay for small molecule antagonists of estrogen receptor alpha signaling (AID 588513; active means well fitted curve in the direction sought with a large enough effect in the signal ratio, with a control signal flat, not every such curve was filed as active; inconclusive means small, poorly fitted or top-dose-only effect, or effect the other way, or a change in a side signal; inactive means no such curve, though single readings can be large or run the other way; the % refers to the signal ratio; further: on the % scale 0 is the no-effect control and ±100 the full control effect); settings: ER-alpha-UAS-bla HEK293, beta-lactamase ratio, antagonist mode; activity, negative = inhibition: at 76.9 µM (top of the series) unless noted
Outline: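 ER-alpha-UAS-bla GripTite HEK 293 cells in 2% charcoal/dextran-treated FBS medium; compounds titrated (1:2, duplicate), then stimulated with 0.5 nM 17-beta-estradiol for 18 h at 37C. CCF4 beta-lactamase fluorescence; Hill-fit IC50 and efficacy.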

[5] = molecular target: Peroxisome proliferator-activated receptor delta (Homo sapiens) (UniProt Q03181); experiment: qHTS assay for small molecule agonists of peroxisome proliferator-activated receptor delta signaling (AID 588534; calls by dose curve; further: potency means the concentration at half of the fitted maximal effect); settings: HEK293T PPARdelta-UAS-bla, beta-lactamase ratio, 18 h; activation: at 76.7 µM (top of the series)
Outline: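 Agonist-mode qHTS; reporter cells, 5 hrs 37 C pre-incubation; compound titration, 18 hrs 37 C; CCF4 dye, 2 hrs RT; fluorescence read. EC50/efficacy via Hill fit.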

[6] = molecular target: Peroxisome proliferator-activated receptor delta (Homo sapiens) (UniProt Q03181); experiment: qHTS assay for small molecule antagonists of peroxisome proliferator-activated receptor delta signaling (AID 588535; active means well fitted inhibition curve with a large enough effect in the signal ratio, with a control signal flat, not every such curve was filed as active; inconclusive means small, poorly fitted or top-dose-only effect, or effect the other way, or a change in a side signal; inactive means no such curve, though single readings can be large or run the other way; the % refers to the signal ratio); settings: HEK293T PPARd-UAS-bla, beta-lactamase FRET ratio, 18 h; activity change, negative = inhibition: at 76.7 µM (top of the series)
Outline: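 Titrations were run on PPAR-delta-UAS-bla HEK293T cells in charcoal/dextran-stripped serum, incubated 18 h at 37 C. CCF4 fluorescence (460/530 nm) after 2 h RT; Hill equation yields IC50 and maximal response.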

[7] = molecular target: Peroxisome proliferator-activated receptor gamma (Homo sapiens) (UniProt P37231); experiment: qHTS assay for small molecule agonists of peroxisome proliferator-activated receptor gamma signaling (AID 588536; active means well fitted curve in the direction sought with a large enough effect in the signal ratio, with a control signal flat, not every such curve was filed as active; inconclusive means small, poorly fitted or top-dose-only effect, or effect the other way, or a change in a side signal; inactive means no such curve, though single readings can be large or run the other way; the % refers to the signal ratio;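 further: 0% = DMSO basal wells and 100% = rosiglitazone at 2 µM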); settings: HEK293 PPARg-UAS-bla, beta-lactamase ratio, 16 h; activation: at 76.7 µM (top of the series), percent of rosiglitazone response, DMSO as zero
Outline: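 Cells were plated and held 6–6.5 h at 37 C, then compounds were added as a titration series. After a further 16 h, CCF4 dye was loaded for 2 h at room temperature and emission at 460/530 nm recorded.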

[8] = molecular target: Peroxisome proliferator-activated receptor gamma (Homo sapiens) (UniProt P37231); experiment: qHTS assay for small molecule antagonists of peroxisome proliferator-activated receptor gamma signaling (AID 588537; active means well fitted inhibition curve with a large enough effect in the signal ratio, with a control signal flat, not every such curve was filed as active; inconclusive means small, poorly fitted or top-dose-only effect, or effect the other way, or a change in a side signal; the % refers to the signal ratio;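 further: reporter cells co-stimulated with 50 nM rosiglitazone agonist during compound treatment; % of control where 0% means no effect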); settings: HEK293 PPARg-UAS-bla, beta-lactamase ratio, antagonist mode; activity, negative = inhibition: at 76.8 µM (top of the series)
Outline: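 Antagonist-mode β-lactamase reporter screen run as a titration series. HEK293 PPARγ-UAS-bla cells are stimulated with rosiglitazone (50 nM final) for 16 h, then CCF4 is read at 460/530 nm. Data are scaled between DMSO and rosiglitazone and fitted to the Hill equation.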

[9] = molecular target: Retinoic acid receptor RXR-alpha (Homo sapiens) (UniProt P19793); experiment: qHTS assay for small molecule agonists of retinoid X receptor alpha signaling (AID 588544; calls by dose curve; further: potency means the concentration at half of the fitted maximal effect;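 on activation: 0% = DMSO basal wells and 100% = reference agonist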); settings: HEK293T RXRa-UAS-bla, beta-lactamase reporter, 18 h; activation: at 76.7 µM (top of the series)
[10] = molecular target: Retinoic acid receptor RXR-alpha (Homo sapiens) (UniProt P19793); experiment: qHTS assay for small molecule antagonists of retinoid X receptor alpha signaling (AID 588546; active means well fitted inhibition curve with a large enough effect in the signal ratio, with a control signal flat, not every such curve was filed as active; inconclusive means small, poorly fitted or top-dose-only effect, or effect the other way, or a change in a side signal; inactive means no such curve, though single readings can be large or run the other way; the % refers to the signal ratio;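 further: cells stimulated with 9-cis-retinoic acid as agonist; on the % scale 0 is the no-effect control and ±100 the full control effect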); settings: HEK293T RXRa-UAS-bla, beta-lactamase ratio, antagonist mode
Outline: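 Beta-lactamase reporter inhibition, read as CCF4 fluorescence ratio (ex 405, em 460/530 nm) after 2 h at RT. HEK293T UAS-bla cells, 2500/well, were stimulated with 9-cis-RA at 500 or 100 nM final alongside test compound for 18 h at 37 C.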

[11] = molecular target: Thyroid hormone receptor beta (Homo sapiens) (UniProt P10828); experiment: qHTS assay for small molecule antagonists of thyroid hormone receptor beta signaling (AID 588547; active means well fitted inhibition curve with a large enough effect in the signal ratio, with a control signal flat, not every such curve was filed as active; inconclusive means small, poorly fitted or top-dose-only effect, or effect the other way, or a change in a side signal; the % refers to the signal ratio; further: potency means the concentration at half of the fitted maximal effect); settings: TR-UAS-bla HEK293, beta-lactamase ratio, antagonist mode, 18 h
Outline: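 Inhibition of T3-driven (0.4nM final) beta-lactamase reporter activity was measured over 0.59 nM to 92 uM compound after 18 h at 37 C. The cells were GripTite HEK293 TR-UAS-bla in charcoal/dextran-stripped serum, with CCF4 ratio read-out and IC50 from Hill fits.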

[12] = qHTS assay for small molecule agonists of the antioxidant response element (ARE) signaling pathway (AID 651741; active means well fitted activation curve with a large enough effect in the signal ratio; inconclusive means small, poorly fitted or top-dose-only effect, or effect the other way, or a change in a side signal; the % refers to the signal ratio; further: potency means the concentration at half of the fitted maximal effect); settings: HepG2 ARE-bla reporter, beta-lactamase FRET ratio, 16 h; activation: at 96 µM (top of the series)
Outline: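 Beta-lactamase reporter under ARE control in HepG2 cells, 2,000 per well, was induced by 16 h compound treatment at 37 C. Read-out was fluorescence from LiveBLAzer B/G FRET substrate after 2 h at room temperature.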

[13] = qHTS assay to identify small molecules that stimulate interleukin-8 (IL-8) secretion (AID 651758; active means well fitted activation curve with a large enough effect in the signal ratio; inconclusive means small, poorly fitted or top-dose-only effect, or effect the other way, or a change in a side signal; the % refers to the signal ratio; further: 0% is about no effect); settings: HTRF ratio (665/615); activation: at 92.2 µM (top of the series)
Outline: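 Secreted IL-8 measured homogeneously by TR-FRET (two labelled anti-IL-8 antibodies, 1-3 h at room temperature) after a 16 h, 37 C compound treatment of THP-1 cells at 2000 cells/well.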

[14] = molecular target: Nuclear receptor ROR-gamma (Homo sapiens) (UniProt P51449); experiment: qHTS assay for small molecule antagonists of the retinoid-related orphan receptor gamma (ROR-gamma) signaling pathway (AID 651802); further: potency means the concentration at half of the fitted maximal effect; nearly all actives have a fitted effect of over 60% in size
Outline: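 Steps: cells dispensed; compound or DMSO transferred by pin tool; doxycycline added to induce the ROR response element-driven luciferase; plates held 16hr at 37C; ONE-Glo added and luminescence measured.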

[15] = qHTS assay for small molecule antagonists of the retinoid-related orphan receptor gamma (ROR-gamma) signaling pathway - cell viability counter screen (AID 720652; active means well fitted curve in the direction sought with a large enough effect in the repeat runs; inconclusive means weak or mixed curves; inactive means no such curve, though single readings can be large; an effect the other way counts as inactive or inconclusive;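 further: potency means the concentration at half of the fitted maximal effect; compound exposure lasted 16 hr before ATP read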)
Outline: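 Steps: seed CHO cells bearing TET-inducible ROR and ROR response element-luciferase; rest 5 hr at 37 C; add compound, then doxycycline; incubate 16 hr; add CellTiter-Glo and read luminescence as ATP-based viability.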

[16] = P-glycoprotein substrates identified in KB-8-5-11 adenocarcinoma cell line, qHTS therapeutic library screen (AID 1346987); settings: activity change, negative = cytotoxicity: at 44.5 µM (top of the series); further: on the % scale 0 is the no-effect control and ±100 the full control effect; nearly all actives have a fitted effect of over 65% in size
Outline: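 Luminescence from CellTiter-Glo, read 5 min after addition, quantified survival of KB-8-5-11 (P-gp-overexpressing) cells exposed to compounds for 72 h. AC50 was derived from concentration-response curves.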

[17] = qHTS of pediatric cancer cell lines to identify multiple opportunities for drug repurposing: Primary screen for A673 cells (AID 1347092); settings: A673 Ewing sarcoma viability, CellTiter-Glo ATP luminescence, 48 h; activity change, negative = cytotoxic: at 46 µM (top of the series); further: on the % scale 0 is the no-effect control and ±100 the full control effect; nearly all actives have a fitted effect of over 45% in size
Outline: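 A673 cells (500-1,000 cells/well) were treated 48 hours at 37 degrees C with compounds at 11-point (0.78 nM to 46 µM) or 8-point (0.59 nM to 46 µM) dilutions. Viability read by CellTiter-Glo luminescence; concentration-response curves fitted.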

[18] = qHTS of pediatric cancer cell lines to identify multiple opportunities for drug repurposing: Primary screen for BT-37 cells (AID 1347094);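 further: plate controls were DMSO for no effect and bortezomib for full effect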
Outline: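 Plated cells (500-1,000 per well, growth media) were allowed to settle for 5 hours, treated with compound dilutions for 48 hours, then lysed with CellTiter-Glo for 15 min at room temperature before luminescence reading.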

[19] = Primary qHTS for small molecule stabilizers of the endoplasmic reticulum resident proteome: Secreted ER Calcium Modulated Protein (SERCaMP) assay (AID 1508630); settings: SH-SY5Y GLuc-SERCaMP secretion, thapsigargin, luminescence; activity change, negative = inhibition: at 38.4 µM (top of the series) unless noted; further: potency means the concentration at half of the fitted maximal effect
Outline: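 The SH-SY5Y reporter protocol was run at 3 concentrations up to 38.3 uM (primary) or 11 concentrations (follow-up): 16 h compound, 100 nM thapsigargin for 4 h, then extracellular luciferase luminescence.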

[20] = molecular target: Cytochrome P450 2D6 (Homo sapiens) (UniProt P10635); experiment: Cytochrome P450 family 2 subfamily D member 6 (CYP2D6) small molecule antagonists: luciferase biochemical (cell-free) qHTS assay (AID 1645840; active means well fitted curve in the direction sought with a large enough effect in the repeat runs; inconclusive means weak or mixed curves; inactive means no such curve, though single readings can be large; an effect the other way counts as inactive or inconclusive; further: on the % scale 0 is the no-effect control and ±100 the full control effect; nearly all actives have a fitted effect of over 55% in size)
Outline: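 P450-Glo CYP2D6 system: proluciferin substrate converted by enzyme to luciferin, read by luminescence proportional to activity. Enzyme-substrate mix with compound 10 min at room temperature, then NADPH regeneration 1 h before detection reagent.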

[21] = molecular target: Glutathione peroxidase 1 (Homo sapiens) (UniProt P07203); experiment: Primary qHTS Assay for Inhibitors of Recombinant Selenoprotein Glutathione Peroxidase 1 (GPX1) (AID 1845191); further: potency means the concentration at half of the fitted maximal effect; nearly all actives have a fitted effect of over 65% in size
Outline: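 NADPH consumption tracked by fluorescence at 340/450 nm between t=0 and t=15 min, room temperature. Final mix: 10 nM GPX1, 100 nM glutathione reductase, 1 mM GSH, 0.5 mM NADPH, 0.5 mM cumene hydroperoxide, 0.01% BSA; 30 min compound–enzyme preincubation.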

CASKI = experiment: Primary qHTS to identify gynecologic anti-cancer compounds using libraries of approved drugs and bioactive compounds (AID 1345084); settings: Gynecologic cancer cell panel viability, ATPlite luminescence, 48 h; series mostly up to 57.5 µM; further: on the % scale 0 is the no-effect control and ±100 the full control effect; nearly all actives have a fitted effect of over 55% in size
Outline: (§1)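 Cytotoxicity screen measuring ATP content by luciferase luminescence. Each compound is applied at five concentrations for 48 h at 37 C with 5% CO2.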

Tov112D = experiment: as above; settings: Gynecologic cancer cell panel viability, ATPlite luminescence, 48 h; series mostly up to 57.5 µM
Outline: as §1

[22] = Drug repurposing screens with cells derived from glioblastoma tumor samples (AID 1345199); settings: GBM patient neurospheres viability, ATP luminescence, 48 h; Potency: tumour line A unless noted; activity, negative = cell killing: at 46 µM (top of the series), tumour line A unless noted; further: potency means the concentration at half of the fitted maximal effect; nearly all actives have a fitted effect of over 40% in size
Outline: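 Primary testing used CD133+ neurospheres from four GBM patients, seven concentrations, 48 h exposure and ATP-based viability; confirmation added three slower-growing patient lines.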

7G8 = experiment: qHTS profiling for inhibitors of Plasmodium falciparum proliferation (AID 504749); further: nearly all actives have a fitted effect of over 60% in size; further: potency means the concentration at half of the fitted maximal effect;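 on activity, negative = inhibition: 0% = DMSO vehicle and full inhibition = artemisinin control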; settings: P. falciparum in erythrocytes, SYBR Green DNA, 72 h; series mostly up to 28.7 µM
Outline: (§2)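 SYBR Green fluorescence of parasite DNA, read after lysis and overnight dark incubation, measured growth over 72 h in erythrocyte culture at 0.3% parasitemia and 2.5% hematocrit. Data normalised to DMSO and 0.29 uM artemisinin, with plate-drift correction.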

CP211 = experiment: as above; settings: P. falciparum in erythrocytes, SYBR Green DNA, 72 h; series mostly up to 28.7 µM
Outline: as §2

CP217 = experiment: as above; settings: P. falciparum in erythrocytes, SYBR Green DNA, 72 h; series mostly up to 28.7 µM
Outline: as §2

CP335 = experiment: as above; settings: P. falciparum in erythrocytes, SYBR Green DNA, 72 h; series mostly up to 28.7 µM
Outline: as §2

DIV14 = experiment: as above; settings: P. falciparum in erythrocytes, SYBR Green DNA, 72 h; series mostly up to 28.7 µM
Outline: as §2

DIV17 = experiment: as above; settings: P. falciparum in erythrocytes, SYBR Green DNA, 72 h; activity, negative = inhibition: at 28.7 µM (top of the series)
Outline: as §2

O=C(O)CCCCC1CCSS1 (stereo unspecified)
inconclusive: activity change, negative = inhibition [3] 2.56% | activity, negative = inhibition [4] 56.7% | Potency [5] 25.1 µM [side channel, rising, partial curve] | activity change, negative = inhibition [6] 23.1% | activation [7] 4.17% | Potency [9] 2 µM [fluorescent, side channel, full curve, poor fit] | activation [9] 12.9% | max response [10] 7.72% | Potency [11] 0.0141 µM [cytotoxic, side channel, full curve, poor fit] | Potency [14] 66.8 µM [inhibitor, single point] | Potency [15] 42.2 µM [rising, partial curve, poor fit] | Potency [19] 35.5 µM [inhibitor, partial curve, poor fit] | Potency [22] 35.5 µM [inhibitor, partial curve, poor fit] | Potency (7G8) 2.24 µM [activator, partial curve, poor fit] | Potency (DIV14) 21.3 µM [activator, partial curve, poor fit]
active: Potency [12] 48.6 µM and 37.6 µM | Potency [21] 11.4 µM
inactive: Potency [1] | Potency [2] | Potency [8] | Potency [13] | Potency [16] | Potency [17] | Potency [18] | Potency [20] | Potency (CASKI) | Potency (Tov112D) | Potency (CP211) | Potency (CP217) | Potency (CP335) | Potency (DIV17)
